From patent publication US20240173419A1, “CDK2 DEGRADERS AND USES THEREOF” (Kymera Therapeutics, Inc., priority 2022, published 2024)
The match of structure and compound is tentative.

Biological target: CDK2 (Homo sapiens, UniProt P24941)
Assay: CDK2 degradation in MKN1 cells (AlphaLISA)
Details: for DC50: read-out: CDK2 degradation 14 h: Mean external-Abs DC50, 14 h incubation
Method: Degradation of CDK2 in MKN1 cells was measured using AlphaLISA technology (PerkinElmer ALSU-TCDK2-A10K). MKN1 cells were maintained in RPMI1640 medium containing 10% FBS+1× penn/strep. Cells were seeded in 96-well plates (Corning 3599) at a density of 2e4 cells per well in 80 μL of fresh complete growth medium. Cells were incubated overnight at 37° C., 5% CO2. Compounds were then added to the cell assay plates with a final top concentration of 10 μM in a 1:5 dilution series with a total of 11 doses (0.001 nM-10 μM). The final volume per well was 160 μL and the final DMSO concentration was 0.1%. Additionally, wells containing no cells and only complete growth medium were also maintained on the cell assay plates (‘no cell’ wells) and processed along with experimental wells. After 14 hour-incubation at 37° C., 5% CO2, the medium was removed and the cells were washed once with 100 μL of 1×PBS. Following removal of PBS, 40 μL of 1× Lysis Buffer containing 1× protease and phosphatase inhibitors (Roche 4693116001; Roche 4906837001) were added to each well. The cell assay plate was agitated on a plate shaker at 350 rpm for 10 minutes at room temperature. 10 μL of each cell lysate were transferred to a 384-well plate (PerkinElmer 6007290). 10 μL of control lysates (from PerkinElmer ALSU-TCDK2-A10K kit) were added to separate wells to generate a standard curve. Activation Buffer was prepared by diluting 25-fold in combined Reaction Buffer 1 and Reaction Buffer 2. Acceptor Beads were diluted 50-fold in combined Reaction Buffers. 5 μL of Acceptor Mix were added to each well. The plate was sealed with Topseal-Aadhesive film, covered with foil, and incubated in the dark for 1 hour at room temperature. Under subdued light, the Donor Beads were diluted 50-fold in Dilution Buffer. […] Under subdued light, the plates were analyzed on an EnVision Microplate Reader (PerkinElmer Model 2009-0030). […] The data were analyzed using Xlfit (v5.3. 1.3) and the dose-dependent CDK2 degradation data were fit using a four-parameter logistic model to calculate DC50.

CDK2 degradation 14 h: Average Dmax % (14 h incubation)	DC50	SMILES
A (A (>75% o))	< 100 nM	Cc1cc(S(=O)(=O)C2CCN(CCC3CCN(c4cccc5c4n(C)c(=O)n5C4CCC(=O)NC4=O)CC3)CC2)ccc1Nc1ncc2cc(Cl)c(=O)n(C3CCCC3)c2n1 (stereo not drawn)
	< 100 nM	Cc1cc(S(=O)(=O)C2CCN(CCC3CCN(c4cccc5c4n(C)c(=O)n5C4CCC(=O)NC4=O)CC3)CC2)ccc1Nc1ncc(C(F)(F)F)c(-c2cnn(C)c2)n1 (stereo not drawn)
